Experimental data published in article PMC3513319, “The Importance of the Interaction of CheD with CheC and the Chemoreceptors Compared to Its Enzymatic Activity during Chemotaxis in Bacillus subtilis” (PLoS ONE, 2012).

Amino acid sequences for entries named in this document (tags omitted). A change or cut given only in a name is not applied to a line headed by its entry.
UniProt P39214: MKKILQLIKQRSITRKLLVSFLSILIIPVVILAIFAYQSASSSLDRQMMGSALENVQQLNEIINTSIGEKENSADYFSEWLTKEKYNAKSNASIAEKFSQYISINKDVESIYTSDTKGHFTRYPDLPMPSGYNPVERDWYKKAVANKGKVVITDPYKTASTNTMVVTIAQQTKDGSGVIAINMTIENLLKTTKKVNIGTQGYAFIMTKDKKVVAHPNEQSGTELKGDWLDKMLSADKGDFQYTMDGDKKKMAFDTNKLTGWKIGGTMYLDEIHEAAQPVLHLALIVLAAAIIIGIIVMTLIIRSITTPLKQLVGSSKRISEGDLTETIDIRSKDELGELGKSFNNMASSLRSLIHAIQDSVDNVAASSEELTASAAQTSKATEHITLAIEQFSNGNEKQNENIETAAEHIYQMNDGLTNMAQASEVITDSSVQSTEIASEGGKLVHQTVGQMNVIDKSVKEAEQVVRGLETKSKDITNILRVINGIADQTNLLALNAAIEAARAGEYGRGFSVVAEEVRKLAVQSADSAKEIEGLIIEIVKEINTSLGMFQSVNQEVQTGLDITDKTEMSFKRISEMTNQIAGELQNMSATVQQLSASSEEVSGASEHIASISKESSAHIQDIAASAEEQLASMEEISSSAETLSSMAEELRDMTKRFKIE

Molecular target: T1, glutathione-S-transferase-CheD (GST-CheD) (Bacillus subtilis) (UniProt P40404)
T1 sequence: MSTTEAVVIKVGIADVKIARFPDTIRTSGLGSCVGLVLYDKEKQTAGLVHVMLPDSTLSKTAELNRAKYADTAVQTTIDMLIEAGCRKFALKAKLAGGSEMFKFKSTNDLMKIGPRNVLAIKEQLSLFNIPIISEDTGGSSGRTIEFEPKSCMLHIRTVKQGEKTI
Experiment: pull-down; 80 µM GST-CheD or GST-CheD-F102E on glutathione beads; 100 µM CheC or receptor fragment added for 10 min; washed with TBS + 1% Triton X-100; eluted with glutathione; SDS-PAGE, Coomassie stain, densitometry; both purified

C-terminal fragment of McpA (McpAc) (from UniProt P39214) (domain or fragment)
binding: binds

Results are given in words; binding and its absence hold for the method and conditions named. A result given as binding can be weak or reduced; the word gives no strength. Where a sequence is shown, tags or fusion partners need not be part of it.
